These are yes or no findings as the source states them, for the method shown. Some entries that bind do so weakly or less than the wild type.

Binding data for 1 molecule are collected here from publication doi:10.1101/2021.10.13.464285.

The target of the test is Respiratory syncytial virus matrix (M) protein (respiratory syncytial virus, strain rA2-mK+ (parent strain A2)) (UniProt P0DOE7). The test is described as follows: cryo-EM structure.

B1: Respiratory syncytial virus matrix (M) protein (protein, UniProt P0DOE7 1-256)
chain: METYVNKLHEGSTYTAAVQYNVLEKDDDPASLTIWVPMFQSSMPADLLIKELANVNILVKQISTPKGPSLRVMINSRSAVLAQMPSKFTICANVSLDERSKLAYDVTTPCEIKACSLTCLKSKNMLTTVKDLTMKTLNPTHDIIALCEFENIVTSKKVIIPTYLRSISVRNKDLNTLENITTTEFKNAITNAKIIPYSGLLLVITVTDNKGAFKYIKPQSQFIVDLGAYLEKESIYYVTTNWKHTATRFAIKPMED
For B1, the binding entry is “binds”.
